This note sets out measurements from patent US12391685B2, “Inhibitors of RNA-guided nuclease target binding and uses thereof” (THE BROAD INSTITUTE, INC., priority 2018, dated 2025).

SMILES strings stand for the structures.

For the data set, the system named is eGFP protein expression. Kind of data set: Western blot analysis of eGFP protein expression in U2OS.eGFP.PEST cells. Format: cell-based. To be noted: 24 h incubation. For orientation: Immunoblotting shows a protein as a band on a membrane.

Consider `OC[C@H]1Nc2ccc(-c3cccc(F)c3)cc2[C@H]2[C@@H]1CCN2Cc1ccncc1` [BRD7087, ((3aR,4S,9bR)-8-(3-Fluorophenyl)-1-(pyridin-4-ylmethyl)-2,3,3a,4,5,9b-hexahydro-1H-pyrrolo[3,2-c]quinolin-4-yl) methanol], for which the “effect on eGFP expression levels” value was “No change”.

For `COc1ccc(-c2ccc3c(c2)[C@H]2[C@H](CCN2Cc2ccncc2)[C@@H](CO)N3)cc1` [BRD5779, ((3aR,4S,9bR)-8-(4-Methoxyphenyl)-1-(pyridin-4-ylmethyl)-2,3,3a,4,5,9b-hexahydro-1H-pyrrolo[3,2-c]quinolin-4-yl) methanol], the “effect on eGFP expression levels” value was “No change”.
